Assays:
[1] = Bubble cell test, corrosion rate by Linear Polarization Resistance (LPR) in produced water brine treated with corrosion inhibitor and biocide; settings: for Corrosion rate in MPY, Biocide + 2 hrs: 2 hrs after biocide addition; for Corrosion rate in MPY, Biocide + 8 hrs: 8 hrs after biocide addition; for Corrosion rate in MPY, Biocide + 17 hrs: 17 hrs after biocide addition; for Corrosion rate in MPY, Biocide: at biocide addition; for Corrosion rate in MPY, CI: after 120 ppm corrosion inhibitor, before biocide addition
[2] = Bubble cell test, LPR corrosion rate, CO2 only tests (no biocide added); settings: for corrosion protection against generalized corrosion produced by CO2 compared to untreated controls: CO2, no biocide; for Corrosion rate in MPY, Biocide + 2 hrs / Corrosion rate in MPY, Biocide + 8 hrs / Corrosion rate in MPY, Biocide + 17 hrs / Corrosion rate in MPY, CI: CO2 only; for Corrosion rate in MPY, Biocide + 2 hrs / Corrosion rate in MPY, Biocide + 8 hrs / Corrosion rate in MPY, Biocide + 17 hrs: no biocide added, 120 ppm corrosion inhibitor; for Corrosion rate in MPY, Biocide + 2 hrs: + 2 hrs time point; for Corrosion rate in MPY, Biocide + 8 hrs: + 8 hrs time point; for Corrosion rate in MPY, Biocide + 17 hrs: + 17 hrs time point; for Corrosion rate in MPY, CI: no biocide, after 120 ppm corrosion inhibitor
[3] = 120 ppm corrosion inhibitor + 100 ppm Biocide 1
[4] = 120 ppm corrosion inhibitor + 100 ppm Biocide 2
[5] = 120 ppm corrosion inhibitor + 100 ppm Biocide 3
[6] = 120 ppm corrosion inhibitor + 100 ppm Biocide 4

| Compound | Corrosion rate in MPY, Biocide + 2 hrs [1, 3] [MPY] | Corrosion rate in MPY, Biocide + 8 hrs [1, 3] [MPY] | Corrosion rate in MPY, Biocide + 17 hrs [1, 3] [MPY] | Corrosion rate in MPY, Biocide [1, 3] [MPY] | Corrosion rate in MPY, Biocide + 2 hrs [1, 4] [MPY] | Corrosion rate in MPY, Biocide + 8 hrs [1, 4] [MPY] | Corrosion rate in MPY, Biocide + 17 hrs [1, 4] [MPY] | Corrosion rate in MPY, Biocide [1, 4] [MPY] | Corrosion rate in MPY, Biocide + 2 hrs [1, 5] [MPY] | Corrosion rate in MPY, Biocide + 8 hrs [1, 5] [MPY] | Corrosion rate in MPY, Biocide + 17 hrs [1, 5] [MPY] | Corrosion rate in MPY, Biocide [1, 5] [MPY] | Corrosion rate in MPY, Biocide + 2 hrs [1, 6] [MPY] | Corrosion rate in MPY, Biocide + 8 hrs [1, 6] [MPY] | Corrosion rate in MPY, Biocide + 17 hrs [1, 6] [MPY] | Corrosion rate in MPY, Biocide [1, 6] [MPY] | Corrosion rate in MPY, CI ([1]; Biocide 1 test) [MPY] | Corrosion rate in MPY, CI ([1]; Biocide 2 test) [MPY] | Corrosion rate in MPY, CI ([1]; Biocide 3 test) [MPY] | Corrosion rate in MPY, Biocide + 17 hrs [2] [MPY] | also measured |
| --- | --- | --- | --- | --- | --- | --- | --- | --- | --- | --- | --- | --- | --- | --- | --- | --- | --- | --- | --- | --- | --- |
| Cocoamphodiproprionate sodium salt | 15.8 | 1.415 | 0.81 | 48.9 | 1.436 | 0.6276 | 0.4382 | 3.966 | 3.2560 | 7.3900 | 19.2800 | 5.9450 | 3.6720 | 3.2270 | 2.8500 | 3.9920 | 4.888 | 0.5222 | 6.9830 | 5.9230 | Corrosion rate in MPY, CI ([1]; Biocide 4 test): 4.4020 MPY; corrosion rate within the acceptable range of corrosion protection ([1]; biocide 2 treated carbon steel coupons, 120 ppm corrosion inhibitor): < 4 MPY; corrosion protection against generalized corrosion produced by CO2 compared to untreated controls [2]: significantly reduced; Corrosion rate in MPY, Biocide + 2 hrs [2]: 23.7300 MPY; Corrosion rate in MPY, Biocide + 8 hrs [2]: 6.9350 MPY; Corrosion rate in MPY, CI [2]: 98.5400 MPY |
| Benzyl, didethyl-dodecyl-ammonium chloride [CONTROL 1, reference compound] | 47.6 | 22.2 | 14.82 | 100 | 0.6369 | 0.5407 | 0.4188 | 0.6607 | 0.17 | 0.16 | 0.16 | 0.25 | 0.47 | 0.38 | 0.44 | 0.60 | 0.6718 | 0.6933 | 0.64 | 125.2000 | Corrosion rate in MPY, CI ([1]; Biocide 4 test): 0.64 MPY; Corrosion rate in MPY, Biocide + 2 hrs [2]: 76.5700 MPY; Corrosion rate in MPY, Biocide + 8 hrs [2]: 112.9000 MPY; Corrosion rate in MPY, CI [2]: 60.3400 MPY |
| OCCS [CONTROL 3, Mercaptoethanol, reference compound] | 27.7 | 20.5 | 18.1 | 28.1 | 22.43 | 17.78 | 13.44 | 26.89 | 3.57 | 1.36 | 1.25 | 9.62 | 10.20 | 8.91 | 7.39 | 10.12 | 6.1 | 15.96 | 10.74 | 2.7150 | Corrosion rate in MPY, CI ([1]; Biocide 4 test): 10.57 MPY; Corrosion rate in MPY, Biocide + 2 hrs [2]: 4.0350 MPY; Corrosion rate in MPY, Biocide + 8 hrs [2]: 3.0320 MPY; Corrosion rate in MPY, CI [2]: 9.1810 MPY |
| 2-hydroxylethyl-N-methylbutane-1-sulphonamide | 23.91 | 5.312 | 3.712 | 122.9 | 0.7841 | 0.6327 | 0.3224 | 2.01 | 3.4910 | 5.1620 | 8.8860 | 2.7740 | 2.6270 | 2.2090 | 2.0730 | 2.8890 | 5.101 | 0.6859 | 3.8820 | 37.5800 | Corrosion rate in MPY, CI ([1]; Biocide 4 test): 3.1740 MPY; corrosion protection against generalized corrosion produced by CO2 compared to untreated controls [2]: capable of reducing the corrosion rates; Corrosion rate in MPY, Biocide + 2 hrs [2]: 102.5000 MPY; Corrosion rate in MPY, Biocide + 8 hrs [2]: 47.4900 MPY; Corrosion rate in MPY, CI [2]: 111.6000 MPY |
| Dodecenyl succinic anhydride |  |  | 3.864 |  |  |  | 0.5356 |  |  |  | 1.8120 | 5.5460 |  |  | 3.1680 |  |  |  |  | 135.9000 | corrosion protection against generalized corrosion produced by CO2 compared to untreated controls [2]: does not confer additional protection |

— patent US11732143B2, “Identification and characterization of novel corrosion inhibitor molecules” (ECOLAB USA INC., priority 2015, dated 2023)
